## Results of single-concentration screens

From ChEMBL document CHEMBL3988442, “University of Dundee, Small-Polar-MMV Screening Library” (2021).

Values are the deposited “Percent Effect”, in %. The record does not define 0% and 100%; most values in the screen are far below 50% and negative numbers occur (in some assays of this library far below -100). The compounds are a random part of those screened.

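Whole-parasite assay of Trypanosoma brucei over 72 hours; the read-out is not stated. Compounds at 30 µM. Direction is inferred from retests: higher values go with stronger inhibition. Values scatter widely below zero; nearly all retest evidence comes from the higher of the two concentrations used. Of about 64,000 compounds tested this way, about 940 (1.5%) reached 50% or more in at least one test.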

Compound,percent effect
[H][C@@]12CS(=O)(=O)C[C@]1([H])N(Cc1cc(Cl)cc(Cl)c1)CCN2CC1CC1,11.99%
COc1ccc(-c2ccc(C(=O)N3CCC[C@@H]3CO)o2)cc1,-12.49%
Cc1ccc(CSc2nc(N)cc(NCCC(N)=O)n2)cc1,-35.51%
CS(=O)(=O)N1CCCCCC1c1cc(-c2ccc(F)cc2)no1 (stereo not shown),3.201%
COc1ncnc(N)c1CNCc1ccccc1-n1cccn1,-31.63%
CC/N=c1\nc(NCC)nc2n1C(O)(Nc1cc(C)ccc1C)CS2 (stereo not shown),-18.12%
O=C(NCC(O)c1cccc(F)c1)c1cccnc1O (stereo not shown),7.844%
CCc1noc(CN(Cc2cccs2)C2CC2)n1,-11.86%
CCc1cc(NCCS(=O)(=O)N(C)C)nc(N2CCOCC2)n1,-32.53%
CCN1CCN(c2ccc(NC(=O)CC(C)C)c(C)c2)CC1,-23.24%
CC(=O)NCC(=O)N1Cc2ccnn2CC(COCCN(C)C)C1 (stereo not shown),-13.62%
CC(C)(CNc1ccc2ccc(F)cc2n1)NS(C)(=O)=O,0.5994%
Cc1nc(COCc2cnc3n2CCN(C2CCC2)C3C)cs1.O=C(O)C(F)(F)F (stereo not shown),-3.887%
CNC(=O)NC(C)c1nc(-c2ccc(Br)cc2)no1 (stereo not shown),-49.61%
Cn1cnc2c1CCN(c1ccnc(-c3ccccc3)n1)C2,-342.1%
CCCc1cc(C(=O)N(C)Cc2cccc3ncccc23)n(C)n1,11.16%
Cc1cc(C)n(C2CN(C(=O)c3cn4ccsc4n3)C2)n1,-30.75%
Cc1nnc(C(NS(=O)(=O)c2cc(C)c(F)cc2F)C(C)C)[nH]1 (stereo not shown),6.367%
CCOc1c(Br)cc(/C=C/c2ncc(C(=O)O)s2)cc1OC,-23.45%
CCn1c(CN2CCCC2)nnc1C1CCN(Cc2ccccn2)CC1,-31.72%
CC1(C)CC1(C(=O)N1CC(c2cccnc2)C1)c1ccc(F)cc1 (stereo not shown),3.758%
COCCN(CCc1ccccc1)Cc1nc2c(cnn2C)c(=O)[nH]1,19.28%
NS(=O)(=O)CCNC(=O)c1nnn(-c2ccc(F)cc2)c1C1CC1,-9.392%
[H][C@]12CCN(C(C)=O)[C@@]1([H])CC[C@H](COCC(=O)N1CCCC1)O2,-48.48%
CCN1CCN(C[C@@H]2CN(c3ncc(Cl)cc3F)C[C@@H]2CO)CC1,10.17%
CN(C)C(=O)COCc1cncc2c1CCN(Cc1nccn1C)C2,-8.618%
Nc1nccnc1C1CN(C(=O)c2cnccn2)CCO1 (stereo not shown),-10.01%
CN(C)S(=O)(=O)NCCn1nc(-c2ccccc2)n(C)c1=O,8.065%
O=C(O)C(F)(F)F.O=C(O)C(F)(F)F.[H][C@]12CCC(=O)N(c3cccnc3)[C@@]1([H])CCN2c1ncc(F)cn1,-13.73%
N[C@H]1CN(CCOc2ccc(F)cc2)C[C@@H]1C1CC1,29.01%
COCCN1CCc2c(c(COc3cccnc3)nn2C)C1.O=C(O)C(F)(F)F.O=C(O)C(F)(F)F,-52.68%
COc1c(CNC2CCCN(c3ncccn3)C2)c(C(C)C)nn1C (stereo not shown),3.993%
Cc1cc(C(=O)N2CCC3(CC2)c2nc[nH]c2CCN3CC(C)C)no1,-25.33%
Cc1nn(C)c2ncc(S(=O)(=O)N3CCCN4CCCC4C3)cc12 (stereo not shown),-33.19%
Cc1cccc(C(C)C)c1NC(=O)CN(C)C(C)c1nccs1 (stereo not shown),1.114%
Cc1ccc(C(=O)NCCCn2cccn2)c(=O)[nH]1,-16.6%
Cc1n[nH]c(C(=O)NCc2ccnc(OCC(F)(F)F)c2)c1Br,6.739%
Cc1cccc(CN2CCc3c(nc(N4CCCCC4C)[nH]c3=O)C2)n1 (stereo not shown),11.11%
COCCN1CCn2cc(CN(C)Cc3ccco3)nc2C1,-24.27%
COc1ccc(Cl)c(-c2noc3ncn(CCC(=O)O)c(=O)c23)c1,-42.68%
O=C(C1CCC1)N1CCN(c2snc3ccccc23)CC1,16.79%
[H][C@@]12C[C@@H](O)C[C@]1([H])CN(Cc1cc(C(C)(C)C)ccc1OCC(=O)O)C2,-25.91%
COc1cc(CN(C)C(=O)NCc2ccccn2)ccc1SC,-14.25%
O=C(O)C(F)(F)F.O=C(O)C(F)(F)F.[H][C@@]12COC[C@]1(CNC(=O)c1ccsc1)CN(Cc1cccnc1)C2,39.91%
CC(CCO)Nc1cccc(C(F)(F)F)n1 (stereo not shown),13.72%
CCN(CC(=O)N(C)C)S(=O)(=O)c1cnc2c(c1)c(C)nn2C,-14.89%
O=C1N(c2ccc(Br)cc2)Cc2nc(=O)[nH]n21,22.72%
O=c1c(CN2CCSCC2)coc(O)c1CN1CCCC1,-32.11%
O=C(O)C(F)(F)F.[H][C@@]12CCN(c3ccc(C)nn3)[C@]1([H])CC[C@@H](C(=O)NCc1ccco1)O2,23.95%
CC(=O)Nc1ccc(CN2CCOC2=O)cc1,-16.74%
CC(C)CCNC(=O)c1ccc2c(=O)n(-c3ccccc3)cnc2c1,-48.15%
CC(C)[C@H](N)C(=O)N1CCSc2ccccc2C1.Cl,3.643%
CCN(CC(=O)Nc1cc(C(C)(C)C)no1)Cc1ccc(Cl)s1,-60.14%
CN1CCN(C(=O)c2cn(-c3ccc(C(F)(F)F)cn3)nn2)CC1,-2.753%
Cc1ccccc1C1(CN)CCOCC1,3.274%
Cc1nnc(-c2cccc(C#N)c2)n1C1CCN(C2CC2)C1=O (stereo not shown),-0.5135%
Cc1ccc(N2CC3(COCCN(Cc4cccnc4)C3)OCC2=O)s1.O=C(O)C(F)(F)F.O=C(O)C(F)(F)F (stereo not shown),-17.43%
COc1cc(NC(=O)NC2CC2)ccc1N1CCOC1=O,-12.99%
Cn1cc(C(=O)NCCCN2CCCCCC2=O)c(-c2cccnc2)n1,-20.11%
CCCn1nccc1S(=O)(=O)N1CCC2(CCCN(C(C)C)C2=O)C1 (stereo not shown),-15.44%
Nc1nc(CCC(=O)N2C[C@@H](CN3CCCC3)C[C@H](CO)C2)n[nH]1,1.89%
CC(C)c1nc(CN2CCOCC2)cs1,-3.179%
[H][C@]12CCN(C(=O)c3ccoc3)[C@@]1([H])CC[C@H](COCc1ccccn1)O2,-27.85%
CCC(NC(=O)c1nn(C)cc1C(=O)O)c1ccc(C)cc1 (stereo not shown),4.531%
O=C(O)C(F)(F)F.O=C(c1ccc2ccccc2n1)N1CCC2(CCN2c2ncccn2)C1 (stereo not shown),-24.16%
CN(C)C(=O)CS(=O)(=O)Cc1cc(Cl)c2c(c1)OCO2,-1.797%
COCC(=O)N1CCC2(CC1)CN(CC1CC1)c1ccc(F)cc12,19.77%
Cc1cc(S(C)(=O)=O)c(C)c(S(=O)(=O)NCC2CCCO2)c1 (stereo not shown),-38.8%
COCC1CN(Cc2cccnc2)Cc2nnn(CC3CC3)c21.O=C(O)C(F)(F)F.O=C(O)C(F)(F)F (stereo not shown),-35.55%
COc1ccc(Cl)cc1NC(=O)CCNc1ccc(C#N)cn1,-9.306%
O=C(CCNC(=O)c1ccoc1)NCc1ccccc1F,-27.97%
CC(=O)N(C)c1nc(Cn2nnnc2C(C)C)cs1,-20.9%
[H][C@]12CN(CC3CC3)C(=O)[C@@]1([H])CN(S(C)(=O)=O)C2,-46.31%
CC(=O)NCC(=O)N1CCC(c2cncc(Oc3cccnc3)n2)CC1,0.1358%
Cc1cc(CNC(=O)N(Cc2ccc(F)cc2F)C2CC2)no1,-24.17%
COc1ccccc1OC1CCN(c2nc(N)nc3[nH]cnc23)CC1,0.4611%
CS(=O)(=O)N1CCc2ncc(CNC(=O)C3CCC3)n2CC1,-49.99%
CC1CN(C)CCN1C(=O)c1cnn(-c2ccc(Cl)cc2)c1 (stereo not shown),-9.793%
O=C(c1ccco1)N1CCC(CSCc2ccco2)CC1,-30.84%
CCC(CN1CCN(C)CC1)NC(=O)C1(c2cccc(F)c2)CC1.O=C(O)CC(O)(CC(=O)O)C(=O)O (stereo not shown),-17.17%
O=C(O)C(F)(F)F.O=C(O)C(F)(F)F.O=C(c1c[nH]cn1)N1CCC(F)(F)C2(CCN(c3ccccn3)C2)C1 (stereo not shown),-16.2%
CC1CCN(C(=O)c2ccnc(-n3cncn3)c2)c2ccccc21 (stereo not shown),-1.465%
Clc1cc(Cl)cc(OCCN2CCC(n3cncn3)CC2)c1,-28.88%
O=C(O)C(F)(F)F.[H][C@@]12CCN(C(=O)c3cocn3)C[C@]1(COc1ncccc1F)CCO2,-185.8%

9 of the entries, repeated:

| Compound | percent effect |
|---|---|
| `CC(=O)Nc1ccc(CN2CCOC2=O)cc1` | -16.74% |
| `O=C(O)C(F)(F)F.[H][C@@]12CCN(C(=O)c3cocn3)C[C@]1(COc1ncccc1F)CCO2` | -185.8% |
| `COCCN(CCc1ccccc1)Cc1nc2c(cnn2C)c(=O)[nH]1` | 19.28% |
| `CN1CCN(C(=O)c2cn(-c3ccc(C(F)(F)F)cn3)nn2)CC1` | -2.753% |
| `Cc1cccc(CN2CCc3c(nc(N4CCCCC4C)[nH]c3=O)C2)n1` (stereo not shown) | 11.11% |
| `CC1CCN(C(=O)c2ccnc(-n3cncn3)c2)c2ccccc21` (stereo not shown) | -1.465% |
| `Cn1cc(C(=O)NCCCN2CCCCCC2=O)c(-c2cccnc2)n1` | -20.11% |
| `Cc1nc(COCc2cnc3n2CCN(C2CCC2)C3C)cs1.O=C(O)C(F)(F)F` (stereo not shown) | -3.887% |
| `CC(C)CCNC(=O)c1ccc2c(=O)n(-c3ccccc3)cnc2c1` | -48.15% |